From paper PMC9114397
Results are given in words; binding and its absence hold for the method and conditions named. Binding seen in cells or lysates may run through a third protein. Some binding calls cover weakened binding; strength is not graded here. For part of these data: Tags and fused reporters may be left off the sequences shown.

Amino acid sequences for entries named in this document (tags omitted). Residues count along the entry.
UniProt P18537, residues 19-581: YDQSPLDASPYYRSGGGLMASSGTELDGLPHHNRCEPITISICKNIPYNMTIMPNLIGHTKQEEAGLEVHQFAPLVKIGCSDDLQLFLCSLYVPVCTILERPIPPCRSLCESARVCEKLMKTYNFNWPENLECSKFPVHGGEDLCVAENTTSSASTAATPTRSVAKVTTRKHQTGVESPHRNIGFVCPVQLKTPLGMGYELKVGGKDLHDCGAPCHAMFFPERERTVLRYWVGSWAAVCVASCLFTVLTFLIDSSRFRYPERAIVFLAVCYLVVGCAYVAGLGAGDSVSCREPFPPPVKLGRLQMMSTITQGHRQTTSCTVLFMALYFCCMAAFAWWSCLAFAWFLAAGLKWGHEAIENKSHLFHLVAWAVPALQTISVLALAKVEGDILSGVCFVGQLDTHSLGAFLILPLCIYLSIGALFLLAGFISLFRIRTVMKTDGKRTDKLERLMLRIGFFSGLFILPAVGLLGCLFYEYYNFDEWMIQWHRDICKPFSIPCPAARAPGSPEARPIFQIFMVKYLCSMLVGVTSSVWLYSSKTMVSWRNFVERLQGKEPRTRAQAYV
UniProt P23572: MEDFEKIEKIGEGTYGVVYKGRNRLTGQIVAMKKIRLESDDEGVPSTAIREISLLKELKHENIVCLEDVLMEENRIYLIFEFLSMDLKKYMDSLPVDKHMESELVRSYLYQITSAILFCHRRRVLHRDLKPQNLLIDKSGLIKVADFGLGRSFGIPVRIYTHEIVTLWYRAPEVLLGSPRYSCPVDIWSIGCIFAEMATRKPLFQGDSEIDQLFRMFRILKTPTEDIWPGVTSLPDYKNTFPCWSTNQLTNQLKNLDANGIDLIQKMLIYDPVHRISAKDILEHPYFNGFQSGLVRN

Assays:
[1] = target: T1, CycA::HA (HA-tagged Cyclin A, from UAS-CycA::HA) (Drosophila melanogaster) (UniProt P14785); experiment: co-IP; lysates of embryos overexpressing CycA::HA, Fz::GFP and Dsh::myc; beads coupled to HA antibodies, 3 h at 4 °C; 200 mM Tris pH7.5, 150 mM NaCl, 0.2% NP40; western blot with anti-GFP, anti-Myc, anti-Cdk1 (PSTAIR); controls: embryos with only Fz::GFP and Dsh::myc, or w1118
T1 sequence: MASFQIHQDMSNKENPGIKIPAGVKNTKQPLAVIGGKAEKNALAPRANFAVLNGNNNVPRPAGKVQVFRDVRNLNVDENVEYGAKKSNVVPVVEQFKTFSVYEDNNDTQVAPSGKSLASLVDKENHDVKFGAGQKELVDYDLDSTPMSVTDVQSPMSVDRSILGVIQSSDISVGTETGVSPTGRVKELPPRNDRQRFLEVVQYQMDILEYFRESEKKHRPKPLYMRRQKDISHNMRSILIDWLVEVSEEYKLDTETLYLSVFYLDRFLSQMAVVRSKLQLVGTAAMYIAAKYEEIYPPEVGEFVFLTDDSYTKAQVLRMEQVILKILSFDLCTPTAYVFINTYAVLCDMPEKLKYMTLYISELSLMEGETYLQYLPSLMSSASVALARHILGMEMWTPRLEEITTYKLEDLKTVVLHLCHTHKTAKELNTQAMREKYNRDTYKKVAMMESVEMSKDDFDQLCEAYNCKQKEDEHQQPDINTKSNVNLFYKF

[2] = target: T2, Cyclin A (endogenous CycA in pI cells) (Drosophila melanogaster (endogenous in pupal pI cells)) (UniProt P14785); experiment: proximity ligation; DuoLink kit on fixed pupal nota; rabbit anti-CycA and mouse anti-GFP; epitopes <40 nm apart give a dot; pI cells of arm-fz::GFP pupae with or without overexpressed CycA:HA, or of DE-Cad::GFP pupae
T2 sequence: T1 sequence

Row | binding [1] | binding [2] | Substance
1 | binds | binds | Fz::GFP (Frizzled fused to GFP, arm-fz::GFP) (from UniProt P18537 19-581) (receptor)
2 | binds |  | Cdk1 (from UniProt P23572 1-297) (enzyme)
